This is an account of results in patent US20140315310.

No signal at the amounts used counts as a negative.

The subject of series [1] is phiC31 integrase (serine recombinase). As to the kind of experiment: activity in cells. The conditions noted are these: protein in cells, only the site is given.
Series [2] concerns Bxb1 integrase (serine recombinase) (Mycobacteriophage Bxb1). As to the kind of experiment: activity in cells. The settings on record: orthogonality: Bxb1 does not operate on phiC31 sites; protein in cells; only the site is given.
Where [3] appears, read: orthogonality: phiC31 does not operate on Bxb1 sites.
[4] abbreviates: inversion of DNA between attB and attP in E. coli, GFP flow cytometry, 37 C.

For “GTCGTGGTTTGTCTGGTCAACCACCGCGGTCTCAGTGGTGTACGGTACAAACCCCGAC (double strand) [Bxb1 attP]”, the “activity on this sequence” value in series [1] (setting [3]) is reported as “not active”.
On to “GTGCCCCAACTGGGGTAACCTTTGAGTTCTCTCAGTTGGGGG (double strand) [phiC31 attP]”, for which the “activity on this sequence” value in series [2] is on record as “not active”; in series [1] (setting [4]), “active”.
As for “TCGGCCGGCTTGTCGACGACGGCGGTCTCCGTCGTCAGGATCATCCGGGC (double strand) [Bxb1 attB]”, in series [1] (setting [3]), the “activity on this sequence” value was “not active”.
Take “TGCGGGTGCCAGGGCGTGCCCTTGGGCTCCCCGGGCGCGTACTCC (double strand) [phiC31 attB]”: the “activity on this sequence” value in series [2] was “not active”; in series [1] (setting [4]), “active”.
